Assay results: patent US20030009023A1 (US Dept. of Health and Human Services, published 2003)
These are yes or no findings as the source states them, for the method shown. For some assays here: In cells and extracts the contact can be indirect. Some results given as binding are weak or reduced against the parent protein; the word gives no strength. For some assays here: Tags and fused reporters may be left off the sequences shown.

Key:
[1] = target: T1, Xwnt-8^myc (Xenopus, UniProt P28026 23-358, limits assumed); test: co-immunoprecipitation with anti-myc antibody
T1 construct: also called myc-tagged XWnt-8
T1 sequence (looked up): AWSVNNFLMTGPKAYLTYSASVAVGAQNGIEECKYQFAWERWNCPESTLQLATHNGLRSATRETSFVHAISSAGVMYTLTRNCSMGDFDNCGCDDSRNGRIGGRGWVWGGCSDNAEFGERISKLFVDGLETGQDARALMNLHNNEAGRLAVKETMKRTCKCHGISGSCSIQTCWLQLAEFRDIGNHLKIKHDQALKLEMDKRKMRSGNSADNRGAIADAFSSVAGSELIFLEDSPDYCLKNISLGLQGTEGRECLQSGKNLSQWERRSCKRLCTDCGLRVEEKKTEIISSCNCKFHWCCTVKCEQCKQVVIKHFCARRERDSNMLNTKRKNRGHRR

[2] = target: T1, Xwnt-8^myc; test: co-immunoprecipitation from COS7 cell lysates
[3] = target: T2, HA-tagged mouse Wnt-5A (mouse) (UniProt P22725); test: co-immunoprecipitation (referred to)
T2 sequence (looked up): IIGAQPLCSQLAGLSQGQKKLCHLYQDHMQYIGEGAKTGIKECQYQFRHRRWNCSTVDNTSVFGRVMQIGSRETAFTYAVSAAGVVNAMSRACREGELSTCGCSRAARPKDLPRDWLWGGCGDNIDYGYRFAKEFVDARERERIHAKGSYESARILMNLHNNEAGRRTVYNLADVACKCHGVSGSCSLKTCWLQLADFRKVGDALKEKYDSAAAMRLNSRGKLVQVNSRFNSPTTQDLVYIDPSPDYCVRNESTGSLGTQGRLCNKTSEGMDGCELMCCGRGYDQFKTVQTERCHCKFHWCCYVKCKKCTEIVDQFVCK

[4] = target: T1, Xwnt-8^myc; test: co-immunoprecipitation after in vitro cotranslation
[5] = target: T1, Xwnt-8^myc; test: co-immunoprecipitation; reticulocyte lysate with microsomal membranes and transfected COS cells
[6] = target: T2, HA-tagged mouse Wnt-5A (mouse); test: anti-HA immunoprecipitation of co-transfected COS7 lysates, immunoblot with N374-PEP
[7] = target: T2, HA-tagged mouse Wnt-5A (mouse); test: co-immunoprecipitation with different washing conditions
[8] = target: T3, HA-tagged murine Wnt-1 (mouse, UniProt P04426 28-370); test: co-immunoprecipitation from lysates of COS7 cells co-transfected with Wnt-1 and deletion constructs
T3 construct: also called pLNCWnt1HA; pLNCW1-HA; not shown: hemagglutinin (HA) tag near the C-terminus
T3 sequence (looked up): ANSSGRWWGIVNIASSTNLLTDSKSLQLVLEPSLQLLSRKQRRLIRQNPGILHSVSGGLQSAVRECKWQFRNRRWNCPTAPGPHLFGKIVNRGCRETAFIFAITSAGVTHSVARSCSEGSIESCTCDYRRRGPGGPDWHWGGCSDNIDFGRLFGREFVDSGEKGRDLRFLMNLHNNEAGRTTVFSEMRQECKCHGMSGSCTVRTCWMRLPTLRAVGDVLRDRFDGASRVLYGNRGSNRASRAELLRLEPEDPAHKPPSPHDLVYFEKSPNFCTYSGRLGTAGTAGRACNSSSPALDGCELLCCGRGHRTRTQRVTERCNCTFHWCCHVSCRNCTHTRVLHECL

Measured: binding

B1: bovine Frzb (other)
chain: AACEPVRIPLCKSLPWNMTKMPNHLHHSTQANAILAIEQFEGLLGTHCSPDLLFFLCAMYAPICTIDFQHEPIKPCKSVCERARQGCEPILIKYRHSWPESLACEELPVYDRGVCISPEAIVTADGADFPMDSSNGNCRGASSERCKCKPVRATQKTYFRNNYNYVIRAKVKEIKTKCHDVTAVVEVKEILKASLVNIPRETVNLYTSSGCLCPPLNVNEEYLIMGYEDEERSRLLLVEGSIAEKWKDRLGKKVKRWDMKLRHLGLNTSDSSHSDSTQSQKPGRNSNSRQARN
notes: Full-length bovine Frzb expressed from pcDNA3 (pFrzb) in COS7 cells, or translated in vitro with microsomal membranes, or from injected mRNA; also called Bfrzb; BFrzb
not listed: [8]
binds: all other assays above

B2: Frzb deletion construct delta c-term (protein)
chain: AACEPVRIPLCKSLPWNMTKMPNHLHHSTQANAILAIEQFEGLLGTHCSPDLLFFLCAMYAPICTIDFQHEPIKPCKSVCERARQGCEPILIKYRHSWPESLACEELPVYDRGVCISPEAIVTADGANSNSRQARN
binds: [8]
